Laboratory results: PubChem BioAssay AID1224830 (NIAID, 2016)
In all, the deposit lists about 18,000 reagents; below is a random part of them. About 2,900 of all reagents (16%) count as active. 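Calls are made per well; low scores hint the gene aids the LPS response, high scores that it dampens it.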 Repeated entries: four replicate wells of each siRNA pool. Reagent sequences are not shown.

Test: 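Regulators of TLR4 signalling towards TNF-alpha in macrophage-like cells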 (primary screen)
Cell system: human THP-1 monocytic leukaemia cells, TNF dual-luciferase reporter clone, PMA-differentiated to macrophage-like cells
Knock-down reagent: siRNA pool against human genes, 50 nM
Timing: LPS for 4 h, given about 3 days after siRNA transfection
Treatment: bacterial LPS (TLR4 ligand), 10 ng/ml
Measurement: 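TNF firefly reporter luminescence divided by renilla, normalised to the plate median, then turned into a robust z-score for each replicate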
Scale: TNF reporter robust z-score: higher = stronger TNF reporter response to LPS
Call rule: 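Each well counts as active if its z-score is over 2.8 or under -1.5; controls are left without a call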

target | TNF reporter robust z-score | outcome
ZNF321P (zinc finger protein 321, pseudogene) | -1.47 | inactive
ZNF321P (zinc finger protein 321, pseudogene) | 0.77 | inactive
ZNF321P (zinc finger protein 321, pseudogene) | -0.29 | inactive
ZNF321P (zinc finger protein 321, pseudogene) | 0.13 | inactive
FN1 (fibronectin 1) | 0.33 | inactive
FN1 (fibronectin 1) | -0.15 | inactive
FN1 (fibronectin 1) | 0.84 | inactive
FN1 (fibronectin 1) | 1.33 | inactive
ZNF517 (zinc finger protein 517) | -0.13 | inactive
ZNF517 (zinc finger protein 517) | -0.2 | inactive
ZNF517 (zinc finger protein 517) | -1.17 | inactive
ZNF517 (zinc finger protein 517) | 0.14 | inactive
RRAD | -1.51 | active
RRAD | -1.31 | inactive
RRAD | -0.5 | inactive
RRAD | -0.38 | inactive
TMEM120B (transmembrane protein 120B) | 0.58 | inactive
TMEM120B (transmembrane protein 120B) | -0.66 | inactive
TMEM120B (transmembrane protein 120B) | 0.75 | inactive
TMEM120B (transmembrane protein 120B) | 0.59 | inactive
JAKMIP2 (janus kinase and microtubule interacting protein 2) | -0.52 | inactive
JAKMIP2 (janus kinase and microtubule interacting protein 2) | -1.14 | inactive
JAKMIP2 (janus kinase and microtubule interacting protein 2) | -0.27 | inactive
JAKMIP2 (janus kinase and microtubule interacting protein 2) | -0.18 | inactive
OR8B12 (olfactory receptor family 8 subfamily B member 12) | -0.89 | inactive
OR8B12 (olfactory receptor family 8 subfamily B member 12) | -0.92 | inactive
OR8B12 (olfactory receptor family 8 subfamily B member 12) | -1.52 | active
OR8B12 (olfactory receptor family 8 subfamily B member 12) | -0.52 | inactive
CARD16 (caspase recruitment domain family member 16) | 1.62 | inactive
CARD16 (caspase recruitment domain family member 16) | 1.53 | inactive
CARD16 (caspase recruitment domain family member 16) | 5.34 | active
CARD16 (caspase recruitment domain family member 16) | 0.52 | inactive
CALY (calcyon neuron specific vesicular protein) | -0.37 | inactive
CALY (calcyon neuron specific vesicular protein) | 3.1 | active
CALY (calcyon neuron specific vesicular protein) | 1.22 | inactive
CALY (calcyon neuron specific vesicular protein) | 2.99 | active
ISG20 (interferon stimulated exonuclease gene 20) | 0.96 | inactive
ISG20 (interferon stimulated exonuclease gene 20) | 3.16 | active
ISG20 (interferon stimulated exonuclease gene 20) | 0.69 | inactive
ISG20 (interferon stimulated exonuclease gene 20) | 3.61 | active

Part of the list above, set out differently:
OR8B12 (olfactory receptor family 8 subfamily B member 12) — TNF reporter robust z-score = -0.89; outcome = inactive
OR8B12 (olfactory receptor family 8 subfamily B member 12) — TNF reporter robust z-score = -0.92; outcome = inactive
OR8B12 (olfactory receptor family 8 subfamily B member 12) — TNF reporter robust z-score = -1.52; outcome = active
OR8B12 (olfactory receptor family 8 subfamily B member 12) — TNF reporter robust z-score = -0.52; outcome = inactive
CARD16 (caspase recruitment domain family member 16) — TNF reporter robust z-score = 1.62; outcome = inactive
CARD16 (caspase recruitment domain family member 16) — TNF reporter robust z-score = 1.53; outcome = inactive

The listing continues:
target | TNF reporter robust z-score | outcome
DEFB129 (defensin beta 129) | 0.61 | inactive
DEFB129 (defensin beta 129) | 1.34 | inactive
DEFB129 (defensin beta 129) | -0.28 | inactive
DEFB129 (defensin beta 129) | -0.88 | inactive
FDFT1 (farnesyl-diphosphate farnesyltransferase 1) | 0.4 | inactive
FDFT1 (farnesyl-diphosphate farnesyltransferase 1) | -0.47 | inactive
FDFT1 (farnesyl-diphosphate farnesyltransferase 1) | -1.33 | inactive
FDFT1 (farnesyl-diphosphate farnesyltransferase 1) | -0.32 | inactive
RNASE13 (ribonuclease A family member 13 (inactive)) | -1.27 | inactive
RNASE13 (ribonuclease A family member 13 (inactive)) | -1.09 | inactive
RNASE13 (ribonuclease A family member 13 (inactive)) | -1.01 | inactive
RNASE13 (ribonuclease A family member 13 (inactive)) | -1.13 | inactive
TRAPPC5 (trafficking protein particle complex subunit 5) | -1.02 | inactive
TRAPPC5 (trafficking protein particle complex subunit 5) | -0.3 | inactive
TRAPPC5 (trafficking protein particle complex subunit 5) | -1.27 | inactive
TRAPPC5 (trafficking protein particle complex subunit 5) | -0.28 | inactive
SEPTIN14 (septin 14) | 0.73 | inactive
SEPTIN14 (septin 14) | -0.05 | inactive
SEPTIN14 (septin 14) | -0.32 | inactive
SEPTIN14 (septin 14) | 1.2 | inactive
SEPTIN7 (septin 7) | 0.98 | inactive
SEPTIN7 (septin 7) | 0.79 | inactive
SEPTIN7 (septin 7) | 0.49 | inactive
SEPTIN7 (septin 7) | 1.13 | inactive
THBS2 (thrombospondin 2) | -0.79 | inactive
THBS2 (thrombospondin 2) | 0.45 | inactive
THBS2 (thrombospondin 2) | -0.29 | inactive
THBS2 (thrombospondin 2) | 0.53 | inactive
AMER1 (APC membrane recruitment protein 1) | -0.55 | inactive
AMER1 (APC membrane recruitment protein 1) | 1.5 | inactive
AMER1 (APC membrane recruitment protein 1) | -0.68 | inactive
AMER1 (APC membrane recruitment protein 1) | 1.91 | inactive
MLH3 (mutL homolog 3) | 1.42 | inactive
MLH3 (mutL homolog 3) | 0.65 | inactive
MLH3 (mutL homolog 3) | -0.27 | inactive
MLH3 (mutL homolog 3) | 0.47 | inactive
NOS2 (nitric oxide synthase 2) | -0.2 | inactive
NOS2 (nitric oxide synthase 2) | -0.01 | inactive
NOS2 (nitric oxide synthase 2) | 0.06 | inactive
NOS2 (nitric oxide synthase 2) | 1.63 | inactive
LARGE1 (LARGE xylosyl- and glucuronyltransferase 1) | 0.07 | inactive
LARGE1 (LARGE xylosyl- and glucuronyltransferase 1) | 0.53 | inactive
LARGE1 (LARGE xylosyl- and glucuronyltransferase 1) | -0.06 | inactive
LARGE1 (LARGE xylosyl- and glucuronyltransferase 1) | 1.42 | inactive
DAGLB (diacylglycerol lipase beta) | -0.84 | inactive
DAGLB (diacylglycerol lipase beta) | -0.38 | inactive
DAGLB (diacylglycerol lipase beta) | -0.93 | inactive
DAGLB (diacylglycerol lipase beta) | 0.32 | inactive
KRT3 (keratin 3) | -0.48 | inactive
KRT3 (keratin 3) | 0.56 | inactive
KRT3 (keratin 3) | -0.41 | inactive
KRT3 (keratin 3) | 0.61 | inactive
BORCS6 (BLOC-1 related complex subunit 6) | -0.21 | inactive
BORCS6 (BLOC-1 related complex subunit 6) | 0.24 | inactive
BORCS6 (BLOC-1 related complex subunit 6) | -0.3 | inactive
BORCS6 (BLOC-1 related complex subunit 6) | 0.92 | inactive
CRTAM (cytotoxic and regulatory T cell molecule) | 0.35 | inactive
CRTAM (cytotoxic and regulatory T cell molecule) | 1.14 | inactive
CRTAM (cytotoxic and regulatory T cell molecule) | 0.06 | inactive
CRTAM (cytotoxic and regulatory T cell molecule) | 2.05 | inactive
EXOC4 (exocyst complex component 4) | 0.82 | inactive
EXOC4 (exocyst complex component 4) | 1.55 | inactive
EXOC4 (exocyst complex component 4) | 0.81 | inactive
EXOC4 (exocyst complex component 4) | 0.6 | inactive
GFPT1 (glutamine--fructose-6-phosphate transaminase 1) | -0.19 | inactive
GFPT1 (glutamine--fructose-6-phosphate transaminase 1) | 0.78 | inactive
GFPT1 (glutamine--fructose-6-phosphate transaminase 1) | 0.47 | inactive
GFPT1 (glutamine--fructose-6-phosphate transaminase 1) | 0.2 | inactive
PCGF3 (polycomb group ring finger 3) | 1.45 | inactive
PCGF3 (polycomb group ring finger 3) | 0.87 | inactive
PCGF3 (polycomb group ring finger 3) | 0.2 | inactive
PCGF3 (polycomb group ring finger 3) | -0.48 | inactive
